Measurements reported in PMC7028737.
These are yes or no findings as the source states them, for the method shown. Binding seen in cells or lysates may run through a third protein. These calls come from enrichment with a bait or labelling near it, and not all partners need be listed.

The chains behind the UniProt entries cited, without tags or fusion partners. Where a name states a change or a piece, a line headed by the entry shows the natural chain unless it says otherwise. A line that says so, or that is headed by a name, gives the form on record, which may keep a tag or linker.
FIR-FLAG (far-upstream element-binding protein (FUBP) 1-interacting repressor) (Q9UHX1, form named): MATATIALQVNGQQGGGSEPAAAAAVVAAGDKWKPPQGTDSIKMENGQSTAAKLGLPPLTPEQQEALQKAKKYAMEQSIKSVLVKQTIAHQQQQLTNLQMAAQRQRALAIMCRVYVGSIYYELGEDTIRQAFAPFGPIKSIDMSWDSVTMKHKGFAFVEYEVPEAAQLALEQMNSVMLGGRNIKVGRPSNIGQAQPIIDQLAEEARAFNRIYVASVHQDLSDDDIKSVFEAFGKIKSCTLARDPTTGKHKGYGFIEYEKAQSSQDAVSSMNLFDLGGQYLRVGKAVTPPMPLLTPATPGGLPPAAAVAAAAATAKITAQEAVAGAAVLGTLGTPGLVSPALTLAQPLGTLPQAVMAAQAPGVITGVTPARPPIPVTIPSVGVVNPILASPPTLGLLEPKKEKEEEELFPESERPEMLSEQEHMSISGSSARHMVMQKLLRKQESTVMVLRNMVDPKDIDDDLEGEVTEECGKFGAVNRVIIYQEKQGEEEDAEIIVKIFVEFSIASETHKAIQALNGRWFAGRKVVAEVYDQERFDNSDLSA

Assays:
[1] = target: FIR-FLAG (far-upstream element-binding protein (FUBP) 1-interacting repressor) (human) (UniProt Q9UHX1); experiment: affinity purification with mass spectrometry; Flag-conjugated beads pull down of FIR-FLAG or FIRΔexon2-FLAG from HeLa cells, GeLC-MS / LC-MS; data first obtained with the cell systems of ref. 9 and re-evaluated here
FIRΔexon2-FLAG (human) = experiment: as above

Binder	binding [1]	binding (FIRΔexon2-FLAG (human))
Isoform A of Phosphate carrier protein, mitochondrial (protein, UniProt Q00325 50-362) AVEEQYSCDYGSGRFFILCGLGGIISCGTTHTALVPLDLVKCRMQVDPQKYKGIFNGFSVTLKEDGVRGLAKGWAPTFLGYSMQGLCKFGFYEVFKVLYSNMLGEENTYLWRTSLYLAASASAEFFADIALAPMEAAKVRIQTQPGYANTLRDAAPKMYKEEGLKAFYKGVAPLWMRQIPYTMMKFACFERTVEALYKFVVPKPRSECSKPEQLVVTFVAGYIAGVFCAIVSHPADSVVSVLNKEKGSSASLVLKRLGFKGVWKGLFARIIMIGTLTALQWFIYDSVKVYFRLPRPPPPEMPESLKKKLGLTQ	binds	binds
Isoform Long of Transformer-2 protein homolog alpha (protein, UniProt Q13595 1-282) MSDVEENNFEGRESRSQSKSPTGTPARVKSESRSGSRSPSRVSKHSESHSRSRSKSRSRSRRHSHRRYTRSRSHSHSHRRRSRSRSYTPEYRRRRSRSHSPMSNRRRHTGSRANPDPNTCLGVFGLSLYTTERDLREVFSRYGPLSGVNVVYDQRTGRSRGFAFVYFERIDDSKEAMERANGMELDGRRIRVDYSITKRAHTPTPGIYMGRPTHSGGGGGGGGGGGGGGGGRRRDSYYDRGYDRGYDRYEDYDYRYRRRSPSPYYSRYRSRSRSRSYSPRRY	binds	binds
Isoform 1 of Synaptic glycoprotein SC2 (protein, UniProt Q9NZ01 1-308) MKHYEVEILDAKTREKLCFLDKVEPHATIAEIKNLFTKTHPQWYPARQSLRLDPKGKSLKDEDVLQKLPVGTTATLYFRDLGAQISWVTVFLTEYAGPLFIYLLFYFRVPFIYGHKYDFTSSRHTVVHLACICHSFHYIKRLLETLFVHRFSHGTMPLRNIFKNCTYYWGFAAWMAYYINHPLYTPPTYGAQQVKLALAIFVICQLGNFSIHMALRDLRPAGSKTRKIPYPTKNPFTWLFLLVSCPNYTYEVGSWIGFAIMTQCLPVALFSLVGFTQMTIWAKGKHRSYLKEFRDYPPLRMPIIPFLL	binds	binds
ADP/ATP translocase 3 (protein, UniProt P12236 1-298) MTEQAISFAKDFLAGGIAAAISKTAVAPIERVKLLLQVQHASKQIAADKQYKGIVDCIVRIPKEQGVLSFWRGNLANVIRYFPTQALNFAFKDKYKQIFLGGVDKHTQFWRYFAGNLASGGAAGATSLCFVYPLDFARTRLAADVGKSGTEREFRGLGDCLVKITKSDGIRGLYQGFSVSVQGIIIYRAAYFGVYDTAKGMLPDPKNTHIVVSWMIAQTVTAVAGVVSYPFDTVRRRMMMQSGRKGADIMYTGTVDCWRKIFRDEGGKAFFKGAWSNVLRGMGGAFVLVLYDELKKVI	binds	binds
ATP-dependent RNA helicase DDX51 (protein, UniProt Q8N8A6 1-666) MALFYVARYPGPDAAAAAGPEGAEAGAHGRARALLERLQSRARERQQQREPAQTEAAASTEPATRRRRRPRRRRRVNDAEPGSPEAPQGKRRKADGEDAGAESNEEAPGEPSAGSSEEAPGEPSAGSSEEAPGERSTSASAEAAPDGPALEEAAGPLVPGLVLGGFGKRKAPKVQPFLPRWLAEPNCVRRNVTEDLVPIEDIPDVHPDLQKQLRAHGISSYFPVQAAVIPALLESAACGFLVGRGGYRPSDLCVSAPTGSGKTLAFVIPVVQALLSRVVCHIRALVVLPTKELAQQVSKVFNIYTDATPLRVSLVTGQKSLAKEQESLVQKTADGYRCLADIVVATPGRLVDHIDQTPGFSLQQLRFLIIDEADRMIDSMHQSWLPRVVAAAFQSEDPADPCALLQRRQAQAVTAASTCCPQMPLQKLLFSATLTQNPEKLQQLGLHQPRLFSTGLAHRGLEDTDGDGDSGKYAFPVGLTHHYVPCSLSSKPLVVLHLVLEMGFSRVLCFTNSRENSHRLFLLVQAFGGVDVAEFSSRYGPGQRRMILKQFEQGKIQLLISTDATARGIDVQGVELVVNYDAPQYLRTYVHRVGRTARAGKTGQAFTLLLKVQERRFLRMLTEAGAPELQRHELSSKLLQPLVPRYEEALSQLEESVKEERKQRAA	binds	
Plastin-3 (protein, UniProt P13797 1-630) MDEMATTQISKDELDELKEAFAKVDLNSNGFICDYELHELFKEANMPLPGYKVREIIQKLMLDGDRNKDGKISFDEFVYIFQEVKSSDIAKTFRKAINRKEGICALGGTSELSSEGTQHSYSEEEKYAFVNWINKALENDPDCRHVIPMNPNTDDLFKAVGDGIVLCKMINLSVPDTIDERAINKKKLTPFIIQENLNLALNSASAIGCHVVNIGAEDLRAGKPHLVLGLLWQIIKIGLFADIELSRNEALAALLRDGETLEELMKLSPEELLLRWANFHLENSGWQKINNFSADIKDSKAYFHLLNQIAPKGQKEGEPRIDINMSGFNETDDLKRAESMLQQADKLGCRQFVTPADVVSGNPKLNLAFVANLFNKYPALTKPENQDIDWTLLEGETREERTFRNWMNSLGVNPHVNHLYADLQDALVILQLYERIKVPVDWSKVNKPPYPKLGANMKKLENCNYAVELGKHPAKFSLVGIGGQDLNDGNQTLTLALVWQLMRRYTLNVLEDLGDGQKANDDIIVNWVNRTLSEAGKSTSIQSFKDKTISSSLAVVDLIDAIQPGCINYDLVKSGNLTEDDKHNNAKYAVSMARRIGARVYALPEDLVEVKPKMVMTVFACLMGRGMKRV	binds	
Isoform 1 of Splicing factor, arginine/serine-rich 7 (protein, UniProt Q16629 1-238) MSRYGRYGGETKVYVGNLGTGAGKGELERAFSYYGPLRTVWIARNPPGFAFVEFEDPRDAEDAVRGLDGKVICGSRVRVELSTGMPRRSRFDRPPARRPFDPNDRCYECGEKGHYAYDCHRYSRRRRSRSRSRSHSRSRGRRYSRSRSRSRGRRSRSASPRRSRSISLRRSRSASLRRSRSGSIKGSRYFQSPSRSRSRSRSISRPRSSRSKSRSPSPKRSRSPSGSPRRSASPERMD	binds	
Isoform 1 of 60 S ribosome subunit biogenesis protein NIP7 homolog (protein, UniProt Q9Y221 1-180) MRPLTEEETRVMFEKIAKYIGENLQLLVDRPDGTYCFRLHNDRVYYVSEKIMKLAANISGDKLVSLGTCFGKFTKTHKFRLHVTALDYLAPYAKYKVWIKPGAEQSFLYGNHVLKSGLGRITENTSQYQGVVVYSMADIPLGFGVAAKSTQDCRKVDPMAIVVFHQADIGEYVRHEETLT	binds	
ATP-dependent RNA helicase DDX50 (protein, UniProt Q9BQ39 1-737) MPGKLLWGDIMELEAPLEESESQKKERQKSDRRKSRHHYDSDEKSETRENGVTDDLDAPKAKKSKMKEKLNGDTEEGFNRLSDEFSKSHKSRRKDLPNGDIDEYEKKSKRVSSLDTSTHKSSDNKLEETLTREQKEGAFSNFPISEETIKLLKGRGVTYLFPIQVKTFGPVYEGKDLIAQARTGTGKTFSFAIPLIERLQRNQETIKKSRSPKVLVLAPTRELANQVAKDFKDITRKLSVACFYGGTSYQSQINHIRNGIDILVGTPGRIKDHLQSGRLDLSKLRHVVLDEVDQMLDLGFAEQVEDIIHESYKTDSEDNPQTLLFSATCPQWVYKVAKKYMKSRYEQVDLVGKMTQKAATTVEHLAIQCHWSQRPAVIGDVLQVYSGSEGRAIIFCETKKNVTEMAMNPHIKQNAQCLHGDIAQSQREITLKGFREGSFKVLVATNVAARGLDIPEVDLVIQSSPPQDVESYIHRSGRTGRAGRTGICICFYQPRERGQLRYVEQKAGITFKRVGVPSTMDLVKSKSMDAIRSLASVSYAAVDFFRPSAQRLIEEKGAVDALAAALAHISGASSFEPRSLITSDKGFVTMTLESLEEIQDVSCAWKELNRKLSSNAVSQITRMCLLKGNMGVCFDVPTTESERLQAEWHDSDWILSVPAKLPEIEEYYDGNTSSNSRQRSGWSSGRSGRSGRSGGRSGGRSGRQSRQGSRSGSRQDGRRRSGNRNRSRSGGHKRSFD	binds	binds
WD-repeat-containing protein 3 (protein, UniProt Q9UNX4 1-943) MGLTKQYLRYVASAVFGVIGSQKGNIVFVTLRGEKGRYVAVPACEHVFIWDLRKGEKILILQGLKQEVTCLCPSPDGLHLAVGYEDGSIRIFSLLSGEGNVTFNGHKAAITTLKYDQLGGRLASGSKDTDIIVWDVINESGLYRLKGHKDAITQALFLREKNLLVTSGKDTMVKWWDLDTQHCFKTMVGHRTEVWGLVLLSEEKRLITGASDSELRVWDIAYLQEIEDPEEPDPKKIKGSSPGIQDTLEAEDGAFETDEAPEDRILSCRKAGSIMREGRDRVVNLAVDKTGRILACHGTDSVLELFCILSKKEIQKKMDKKMKKARKKAKLHSSKGEEEDPEVNVEMSLQDEIQRVTNIKTSAKIKSFDLIHSPHGELKAVFLLQNNLVELYSLNPSLPTPQPVRTSRITIGGHRSDVRTLSFSSDNIAVLSAAADSIKIWNRSTLQCIRTMTCEYALCSFFVPGDRQVVIGTKTGKLQLYDLASGNLLETIDAHDGALWSMSLSPDQRGFVTGGADKSVKFWDFELVKDENSTQKRLSVKQTRTLQLDEDVLCVSYSPNQKLLAVSLLDCTVKIFYVDTLKFFLSLYGHKLPVICMDISHDGALIATGSADRNVKIWGLDFGDCHKSLFAHDDSVMYLQFVPKSHLFFTAGKDHKIKQWDADKFEHIQTLEGHHQEIWCLAVSPSGDYVVSSSHDKSLRLWERTREPLILEEEREMEREAEYEESVAKEDQPAVPGETQGDSYFTGKKTIETVKAAERIMEAIELYREETAKMKEHKAICKAAGKEVPLPSNPILMAYGSISPSAYVLEIFKGIKSSELEESLLVLPFSYVPDILKLFNEFIQLGSDVELICRCLFFLLRIHFGQITSNQMLVPVIEKLRETTISKVSQVRDVIGFNMAGLDYLKRECEAKSEVMFFADATSHLEEKKRKRKKREKLILTLT	binds	binds
RNA-binding protein 28 (protein, UniProt Q9NW13 1-759) MAGLTLFVGRLPPSARSEQLEELFSQVGPVKQCFVVTEKGSKACRGFGYVTFSMLEDVQRALKEITTFEGCKINVTVAKKKLRNKTKEKGKNENSECPKKEPKAKKAKVADKKARLIIRNLSFKCSEDDLKTVFAQFGAVLEVNIPRKPDGKMRGFGFVQFKNLLEAGKALKGMNMKEIKGRTVAVDWAVAKDKYKDTQSVSAIGEEKSHESKHQESVKKKGREEEDMEEEENDDDDDDDDEEDGVFDDEDEEEENIESKVTKPVQIQKRAVKRPAPAKSSDHSEEDSDLEESDSIDDGEELAQSDTSTEEQEDKAVQVSNKKKRKLPSDVNEGKTVFIRNLSFDSEEEELGELLQQFGELKYVRIVLHPDTEHSKGCAFAQFMTQEAAQKCLLAASPENEAGGLKLDGRQLKVDLAVTRDEAAKLQTTKVKKPTGTRNLYLAREGLIRAGTKAAEGVSAADMAKRERFELLKHQKLKDQNIFVSRTRLCLHNLPKAVDDKQLRKLLLSATSGEKGVRIKECRVMRDLKGVHGNMKGQSLGYAFAEFQEHEHALKALRLINNNPEIFGPLKRPIVEFSLEDRRKLKMKELRIQRSLQKMRSKPATGEPQKGQPEPAKDQQQKAAQHHTEEQSKVPPEQKRKAGSTSWTGFQTKAEVEQVELPDGKKRRKVLALPSHRGPKIRLRDKGKVKPVHPKKPKPQINQWKQEKQQLSSEQVSRKKAKGNKTETRFNQLVEQYKQKLLGPSKGAPLAKRSKWFDS	binds	binds
